Results are given in words; binding and its absence hold for the method and conditions named. Some binding calls cover weakened binding; strength is not graded here.
Target: recombinant human galectin-7 (human) (UniProt P47929)
Assay: native gel or EMSA; data not shown; hGal-7 (0.5 uM) with increasing concentrations of hGal-7(13-25), formation of homodimers measured; both purified

By UniProt entry, the sequences of proteins in these tests, tags left out. Residues count along the entry.
UniProt P47929, residues 2-136: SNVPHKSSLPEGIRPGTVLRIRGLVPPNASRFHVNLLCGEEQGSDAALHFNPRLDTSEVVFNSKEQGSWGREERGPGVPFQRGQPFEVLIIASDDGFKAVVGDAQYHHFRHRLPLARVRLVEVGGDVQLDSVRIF

binding: binds
Binder: IRPGTVLRIRGLV (C-terminal amide) [hGal-7(13–25) peptide]

Reference: PMC4747383, “Design of a peptidic inhibitor that targets the dimer interface of a prototypic galectin” (Oncotarget, 2015)
